Experimental data: publication PMC9184620, “TAS1553, a small molecule subunit interaction inhibitor of ribonucleotide reductase, exhibits antitumor activity by causing DNA replication stress” (Communications Biology, 2022)
Results are given in words; binding and its absence hold for the method and conditions named. Some binding calls cover weakened binding; strength is not graded here. Tags and fused reporters may be left off the sequences shown.

T1: 6x His-tagged recombinant human R1 (RRM1) (human) (UniProt P23921)
T1 sequence: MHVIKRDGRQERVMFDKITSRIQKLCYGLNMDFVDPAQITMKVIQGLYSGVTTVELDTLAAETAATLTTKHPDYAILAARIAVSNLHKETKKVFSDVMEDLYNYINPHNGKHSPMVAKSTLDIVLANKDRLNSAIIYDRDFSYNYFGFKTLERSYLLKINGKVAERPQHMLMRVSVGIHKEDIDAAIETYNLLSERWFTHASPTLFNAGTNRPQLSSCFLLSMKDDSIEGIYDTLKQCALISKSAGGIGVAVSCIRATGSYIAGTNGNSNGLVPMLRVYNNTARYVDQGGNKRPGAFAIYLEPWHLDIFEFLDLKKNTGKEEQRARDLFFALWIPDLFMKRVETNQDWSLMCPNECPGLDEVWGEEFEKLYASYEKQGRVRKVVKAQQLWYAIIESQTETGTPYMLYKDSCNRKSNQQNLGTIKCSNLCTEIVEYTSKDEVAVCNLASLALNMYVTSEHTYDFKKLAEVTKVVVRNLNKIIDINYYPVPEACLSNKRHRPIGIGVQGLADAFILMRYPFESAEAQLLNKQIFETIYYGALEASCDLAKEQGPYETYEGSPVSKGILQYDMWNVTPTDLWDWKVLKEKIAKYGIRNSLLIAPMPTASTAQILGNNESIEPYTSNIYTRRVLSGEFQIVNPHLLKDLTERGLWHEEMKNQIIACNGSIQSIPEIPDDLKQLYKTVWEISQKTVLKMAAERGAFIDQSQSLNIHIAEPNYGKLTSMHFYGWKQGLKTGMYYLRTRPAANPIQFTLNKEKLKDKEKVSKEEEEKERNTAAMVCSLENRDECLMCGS

T2: N-terminally AG-tagged hR1 (75-742 aa) (human) (UniProt P23921)
T2 sequence: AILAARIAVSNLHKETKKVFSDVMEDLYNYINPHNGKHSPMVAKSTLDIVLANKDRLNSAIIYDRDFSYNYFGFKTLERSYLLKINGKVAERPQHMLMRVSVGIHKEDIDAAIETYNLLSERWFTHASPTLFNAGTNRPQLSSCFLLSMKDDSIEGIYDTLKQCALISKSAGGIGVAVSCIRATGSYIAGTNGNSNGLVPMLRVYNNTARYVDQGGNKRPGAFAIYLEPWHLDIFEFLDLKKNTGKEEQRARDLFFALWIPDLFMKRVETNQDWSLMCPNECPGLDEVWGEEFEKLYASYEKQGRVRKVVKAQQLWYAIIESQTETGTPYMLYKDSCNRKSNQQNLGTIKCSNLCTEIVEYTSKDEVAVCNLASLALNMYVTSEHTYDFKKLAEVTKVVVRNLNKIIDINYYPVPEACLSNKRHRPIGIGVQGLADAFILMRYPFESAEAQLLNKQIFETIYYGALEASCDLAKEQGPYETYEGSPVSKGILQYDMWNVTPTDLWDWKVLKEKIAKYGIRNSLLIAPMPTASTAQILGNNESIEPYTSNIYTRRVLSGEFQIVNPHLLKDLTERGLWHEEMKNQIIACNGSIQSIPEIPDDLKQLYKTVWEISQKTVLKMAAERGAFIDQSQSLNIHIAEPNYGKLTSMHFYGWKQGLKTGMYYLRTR


Key:
[1] = target: T1, 6x His-tagged recombinant human R1 (RRM1) (human); assay: AlphaScreen or HTRF; AlphaLISA: 4.3 ug/mL His-R1 (Nickel Chelate Acceptor beads), 3.3 ug/mL GST-R2 (Glutathione Donor beads), with or without test compound; 50 mmol/L HEPES, 4 mmol/L magnesium acetate, 100 mmol/L KCl, 6 mmol/L DTT, 2 mmol/L ATP, 0.24 mmol/L NADPH, 0.010 mmol/L CDP, 0.1 vol% polysorbate 20, 1 vol% DMSO; 60 min, room temperature; both purified
[2] = target: T1, 6x His-tagged recombinant human R1 (RRM1) (human); assay: co-IP; recombinant His-R1 and GST-R2 in the reaction mixture of the AlphaLISA assay; precipitated with anti-RRM1 antibody or rabbit IgG; with or without TAS1553; both purified
[3] = target: T2, N-terminally AG-tagged hR1 (75-742 aa) (human); assay: Fluoppi (fluorescent foci of AG-tag and Ash-tag fusions); as a4, cells treated with TAS1553 (within 30 minutes, up to 2 h); foci recovered 1 h after washout
[4] = target: T2, N-terminally AG-tagged hR1 (75-742 aa) (human); assay: Fluoppi (fluorescent foci of AG-tag and Ash-tag fusions); AG-tagged hR1 (75-742) and Ash-tagged hR2 co-transfected into HCC38 or NCI-H460 cells; fluorescence imaging before treatment, or with DMSO or HU

binding [1]	binding [2]	binding [3]	binding [4]	Binder
binds	binds	–	–	GST-R2 (human RRM2, Abnova Corporation) (protein, UniProt P31350 1-389) MLSLRVPLAPITDPQQLQLSPLKGLSLVDKENTPPALSGTRVLASKTARRIFQEPTEPKTKAAAPGVEDEPLLRENPRRFVIFPIEYHDIWQMYKKAEASFWTAEEVDLSKDIQHWESLKPEERYFISHVLAFFAASDGIVNENLVERFSQEVQITEARCFYGFQIAMENIHSEMYSLLIDTYIKDPKEREFLFNAIETMPCVKKKADWALRWIGDKEATYGERVVAFAAVEGIFFSGSFASIFWLKKRGLMPGLTFSNELISRDEGLHCDFACLMFKHLVHKPSEERVREIIINAVRIEQEFLTEALPVKLIGMNCTLMKQYIEFVADRLMLELGFSKVFRVENPFDFMENISLEGKTNFFEKRVGEYQRMGVMSSPTENSFTLDADF
–	–	no binding (condition: with TAS1553)	binds	N-terminally Ash-tagged hR2 (protein, UniProt P31350-1 1-389) MLSLRVPLAPITDPQQLQLSPLKGLSLVDKENTPPALSGTRVLASKTARRIFQEPTEPKTKAAAPGVEDEPLLRENPRRFVIFPIEYHDIWQMYKKAEASFWTAEEVDLSKDIQHWESLKPEERYFISHVLAFFAASDGIVNENLVERFSQEVQITEARCFYGFQIAMENIHSEMYSLLIDTYIKDPKEREFLFNAIETMPCVKKKADWALRWIGDKEATYGERVVAFAAVEGIFFSGSFASIFWLKKRGLMPGLTFSNELISRDEGLHCDFACLMFKHLVHKPSEERVREIIINAVRIEQEFLTEALPVKLIGMNCTLMKQYIEFVADRLMLELGFSKVFRVENPFDFMENISLEGKTNFFEKRVGEYQRMGVMSSPTENSFTLDADF
